# Laboratory results: PubChem BioAssay AID504834 (National Center for Advancing Translational Sciences (NCATS), 2011)
# Screen size: about 320,000 compounds; about 22,000 (6.9%) were called active. Inconclusive results, whose numbers are uncertain, are shown with a selection of clear calls. Calls come from the whole dose curve; as a rule, active = well fitted inhibition curve with a large enough effect; inconclusive = small, poorly fitted or top-dose-only effect, or another doubt; inactive = no such curve, though single readings can be large or run the other way. A potency beside an inconclusive call is a rough fit, not a confirmed value.
# Assay: Primary qHTS for delayed death inhibitors of the malarial parasite plastid, 96 hour incubation
# Settings: P. falciparum luciferase reporter growth; series mostly up to 28.7 µM
# In short: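 Plates of compound plus infected erythrocytes (2% hematocrit, 0.05% parasitemia final) incubate 96 hours, 37 C, 5% CO2. Detection reagent added; reduced luminescence from the parasites' luciferase reporter flags inhibition.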
# Potency is the fitted concentration of half-maximal effect.
row,SMILES,Potency
1,CN1CCOc2ccc(S(=O)(=O)NCCc3ccc(Cl)cc3)cc21,"inconclusive: 10.4 µM [inhibitor, partial curve]"
2,Cc1cc(N2CCOCC2)nc(SCC(=O)c2ccc(Cl)cc2)n1,"inconclusive: 10.4 µM [inhibitor, single point]"
3,Cc1ccc(C(C(=O)NC2CCCC2)N(C(=O)Cc2cccs2)c2ccc3c(c2)OCCO3)cc1 (stereo not given),"inconclusive: 2.33 µM [inhibitor, full curve]"
4,O=[N+]([O-])c1cccc(-c2c(-c3ccccc3)ncc3ccc(F)cc23)c1,active: 4.65 µM
5,CC1CCc2nc(NC(=O)c3ccc(S(=O)(=O)N4CCCc5ccccc54)cc3)sc2C1 (stereo not given),"inconclusive: 0.37 µM [inhibitor, full curve]"
6,Cc1ccc2sc(-c3ccc(NC(=O)/C=C\C(=O)O)cc3)nc2c1,"inconclusive: 2.94 µM [inhibitor, full curve, poor fit]"
7,Cc1occc1-c1nnc(SC(C)C(=O)Nc2ccccc2F)o1 (stereo not given),inactive
8,CN(C)CCCN(C(=O)c1cc2ccccc2oc1=O)c1nc2ccc(F)cc2s1,inactive
9,COc1cccc(N=Nc2ccc3cccnc3c2O)c1,"inconclusive: 0.738 µM [inhibitor, full curve, poor fit]"
10,C(=C\c1ccccc1)/CSc1nnc(-c2cccnc2)o1,"inconclusive: 0.104 µM [inhibitor, full curve, poor fit]"
11,Cc1ccc(SCC(=O)NC(=O)NCCC(C)C)c(C)c1,inactive
12,CCCc1c(C(=O)N/N=C/c2cccc(OCc3ccc(F)cc3)c2)nnn1-c1nonc1N,inactive
13,COc1ccccc1S(=O)(=O)Cc1ccc(C(=O)NC(C)c2ccc3c(c2)OCCO3)o1 (stereo not given),inactive
14,COc1cccc(C2SCC(=O)N2c2ccc(C)cc2)c1OC (stereo not given),"inconclusive: 0.828 µM [inhibitor, full curve, poor fit]"
15,CCCN(CC(=O)Nc1ccccc1OC)C(=O)c1cc2ccccc2o1,"inconclusive: 4.65 µM [inhibitor, partial curve]"
16,CC(=O)c1ccc(NC(=S)N2CCN(CCO)CC2)cc1,"inconclusive: 10.4 µM [inhibitor, single point]"
17,O=C1CC(C(F)(F)C(F)(F)C(F)(F)C(F)F)=Nc2ccccc2N1,inactive
18,COC(=O)C1=C(C)N(CCc2ccc(OC)cc2)C(=O)C1,"inconclusive: 13.1 µM [inhibitor, single point]"
19,CCOc1ccc(NS(=O)(=O)c2ccc(-c3coc(C)n3)cc2)cc1,inactive
20,CCOC(=O)c1ccc(NC(=S)NN)cc1,"inconclusive: 0.0738 µM [inhibitor, full curve, poor fit]"
21,O=C(N/N=C/c1ccc(OC2CSC2)cc1)c1ccc(CN2CCOCC2)cc1,"inconclusive: 11.7 µM [inhibitor, single point]"
22,COc1ccc(OC)c(NC(=O)CCNS(=O)(=O)c2ccc3c(c2)c(=O)n(C)c(=O)n3C)c1,inactive
23,CCCn1c(NC(=O)CSCC(=O)Nc2cc(C)on2)nc2ccccc21,"inconclusive: 0.0928 µM [inhibitor, full curve, poor fit]"
24,O=C(CNC(=S)N(Cc1ccccc1)Cc1cccnc1)NC1CCCCC1,active: 9.28 µM

row,SMILES,Potency
1,COc1cc2cc(CN(C(=O)NC3CCCCC3)C3CCCC3)c(=O)[nH]c2cc1OC,"inconclusive: 2.94 µM [inhibitor, partial curve]"
2,CCOc1ccccc1CN1CCNC(=O)C1CC(=O)NC1CCCCCC1 (stereo not given),"inconclusive: 16.5 µM [inhibitor, partial curve, poor fit]"
3,CCC(=O)Nc1ccc(S(=O)(=O)Nc2cccc(C)c2)cc1OC,"inconclusive: 0.117 µM [inhibitor, full curve]"
4,COc1ccc(Nc2nc(-c3cccc(OC)c3O)nc3ccccc23)cc1,"inconclusive: 13.1 µM [inhibitor, single point]"
5,CC(=O)Oc1cccc(N2C(=O)C3C4C=CC(C4)C3C2=O)c1 (stereo not given),"inconclusive: 14.7 µM [inhibitor, single point]"
6,Nc1nc(SCc2ccc(Cl)cc2)[nH]c(=O)c1-c1ccccc1,"inconclusive: 10.4 µM [inhibitor, single point]"
7,O=c1[nH]cnc2nc(-c3ccccc3)c(-c3ccccc3)nc12,inactive
8,O=C(CCNC(=O)c1ccco1)Nc1ccc(Cl)cc1,inactive
9,Cc1ccc(Nc2nc(N)nc(CSC(=S)N3CCN(c4ccccc4)CC3)n2)cc1,"inconclusive: 18.5 µM [inhibitor, single point]"
10,CCCc1ccc(S(=O)(=O)N2CCN(C(C)C(=O)NCc3ccc(OC)cc3)CC2)cc1 (stereo not given),"inconclusive: 11.7 µM [inhibitor, single point]"
11,CCn1c(SCC(=O)Nc2ccccc2)nc2ccccc2c1=O,"inconclusive: 18.5 µM [inhibitor, single point]"
12,O=C(O)c1cccc(CN2C(=O)S/C(=C/c3cccc([N+](=O)[O-])c3)C2=O)c1,"inconclusive: 7.38 µM [inhibitor, partial curve]"
13,CC(C)NCC1CCc2cc(CO)c([N+](=O)[O-])cc2N1 (stereo not given),inactive
14,CSc1nnc2c(n1)[nH]c1c(C)cccc12,active: 5.22 µM
15,COC(=O)C1=C(C)N=C2SCCC(=O)N2C1c1ccc(OC(=O)c2ccco2)cc1 (stereo not given),"inconclusive: 14.7 µM [inhibitor, single point]"
16,O=C(c1ccco1)N1CCN(S(=O)(=O)c2ccc(Oc3ccccc3)cc2)CC1,inactive
17,CCN(Cc1ccncc1)Cc1cn(C)nc1-c1ccc(Oc2ccccc2)cc1,inactive
18,Cc1ccccc1C(=O)Nc1sc(C)c(C)c1C(=O)c1ccccc1,"inconclusive: 8.28 µM [inhibitor, partial curve, poor fit]"
19,CC1CC(C)CN(C(=O)Cn2c(=O)c3cccn3c3cccnc32)C1 (stereo not given),"inconclusive: 16.5 µM [inhibitor, single point]"
20,Cc1oc(C(C)(C)C)cc1C(=O)NC1CCN(Cc2ccccc2)CC1,inactive
21,O=C(Nc1cccc(Cl)c1)Nc1cc(S(=O)(=O)N2CCCCC2)ccc1Cl,active: 2.94 µM
22,Cc1noc(C)c1S(=O)(=O)Nc1ccccc1Oc1ccccc1,"inconclusive: 10.4 µM [inhibitor, single point]"
23,COc1ccc(C2/C=C\CN(S(=O)(=O)c3ccc4ccccc4c3)CC(=O)N2Cc2ccc(F)cc2)cc1 (stereo not given),"inconclusive: 13.1 µM [inhibitor, partial curve, poor fit]"
24,COc1ccc(C2CC(c3cccc(Cl)c3)n3nc(N)nc3N2)cc1 (stereo not given),active: 9.28 µM

row,SMILES,Potency
1,Cc1[nH]c2ccccc2c1C(=O)CN1C(=O)NC2(CC(C)CC(C)(C)C2)C1=O (stereo not given),active: 10.4 µM
2,CCCCC(=O)Nc1nnc(CCOC)s1,inactive
3,CC(C)NC(=O)COc1ccc(S(=O)(=O)N2CCCC2)cc1,active: 1.47 µM
4,CC(C)[C@H](NC(=O)N1c2ccccc2NC(=O)[C@@H]1C(C)C)C(=O)N[C@H](C(=O)O)c1ccccc1,active: 8.28 µM
5,COc1ccc(NS(=O)(=O)c2ccc(NC(=O)C3CC3)cc2)cc1,"inconclusive: 13.1 µM [inhibitor, single point]"
6,CC(=O)Nc1ccc(NC(=O)Cn2c(=O)n(-c3ccc(C)cc3)c(=O)c3oc4ccccc4c32)cc1,"inconclusive: 4.15 µM [inhibitor, partial curve, poor fit]"
7,COCCNC(=O)c1c[nH]n2c(=O)cc(C3CCN(C(=O)OC(C)(C)C)CC3)nc12,"inconclusive: 14.7 µM [inhibitor, partial curve, poor fit]"
8,COC(=O)C1(C(=O)OC)NOC2C(=O)N(c3ccc(Cl)cc3Cl)C(=O)C21 (stereo not given),inactive
9,CCOC(=O)N1CCN(C(=O)/C=C/c2c(C)nn(-c3ccc(F)cc3)c2Cl)CC1,inactive
10,CC1CCc2sc(C(=O)OCC(=O)NCc3ccc(F)cc3)cc2C1 (stereo not given),inactive
11,O=C(CC1C(=O)Nc2ccccc2N1CC(=O)N1CCCC1)Nc1ccc(Br)cc1 (stereo not given),"inconclusive: 13.1 µM [inhibitor, single point]"
12,Oc1ccc(Br)cc1/C=N/n1cnc2ccccc21,active: 2.33 µM
13,Cc1cc(C(=O)CN2c3cccc4cccc(c34)S2(=O)=O)c(C)n1C,"inconclusive: 0.522 µM [inhibitor, full curve, poor fit]"
14,Cc1ccc(C)c(N2CCN(S(=O)(=O)CC34CCC(CC3=O)C4(C)C)CC2)c1 (stereo not given),inactive
15,COc1cc2c3nnc(-c4ccccc4)c-3cn(Cc3ccccc3F)c2cc1OC,"inconclusive: 0.586 µM [inhibitor, full curve, poor fit]"
16,CC(=O)Nc1sc(NC(=O)c2ccc(C)cc2)nc1-c1cccs1,"inconclusive: 9.28 µM [inhibitor, partial curve, poor fit]"
17,COCc1ccc(CN2CCCC(C(=O)Nc3ccccc3-c3ccc(OC)cc3)C2)o1 (stereo not given),"inconclusive: 18.5 µM [inhibitor, single point]"
18,COc1ccc(CCNC(=O)CSc2nc(-c3ccco3)cc(C(F)(F)F)n2)cc1,"inconclusive: 18.5 µM [inhibitor, single point]"
19,O=CN1CCN(C(=O)CN2C(=O)c3ccccc3C2=O)CC1,"inconclusive: 2.62 µM [inhibitor, partial curve, poor fit]"
20,Cc1cccc(CCN=C(N)NS(=O)(=O)c2ccccc2)c1,"inconclusive: 14.7 µM [inhibitor, partial curve]"
21,Cc1noc(C)c1CSCC(=O)N1CCN(c2ccc([N+](=O)[O-])cc2)CC1,active: 11.7 µM
22,O=C(NC1CCCCC1)c1nn2c(C(F)(F)F)cc(-c3ccco3)nc2c1Br,inactive
